Data published in paper PMC8998178.
Results are given in words; binding and its absence hold for the method and conditions named. Some entries that bind do so weakly or less than the wild type.

Protein sequences, listed by entry. Tags and fused reporters are not part of them. Residues count along the entry.
UniProt P51608: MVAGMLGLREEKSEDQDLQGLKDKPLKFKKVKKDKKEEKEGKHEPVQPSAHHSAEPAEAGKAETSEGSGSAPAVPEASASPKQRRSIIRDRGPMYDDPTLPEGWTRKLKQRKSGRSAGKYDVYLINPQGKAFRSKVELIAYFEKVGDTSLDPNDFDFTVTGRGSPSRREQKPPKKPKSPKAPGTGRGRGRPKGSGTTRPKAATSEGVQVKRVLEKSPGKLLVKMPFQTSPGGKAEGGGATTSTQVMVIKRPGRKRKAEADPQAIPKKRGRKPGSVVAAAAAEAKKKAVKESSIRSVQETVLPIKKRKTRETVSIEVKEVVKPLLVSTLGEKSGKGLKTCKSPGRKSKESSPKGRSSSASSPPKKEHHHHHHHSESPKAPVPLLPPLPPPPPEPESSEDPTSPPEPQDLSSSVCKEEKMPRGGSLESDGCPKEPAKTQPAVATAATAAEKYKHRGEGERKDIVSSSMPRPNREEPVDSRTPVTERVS
UniProt P70232, residues 1105-1209: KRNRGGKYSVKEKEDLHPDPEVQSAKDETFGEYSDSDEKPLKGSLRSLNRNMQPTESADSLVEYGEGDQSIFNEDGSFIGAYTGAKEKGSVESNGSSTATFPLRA
UniProt P11627, residues 1147-1260: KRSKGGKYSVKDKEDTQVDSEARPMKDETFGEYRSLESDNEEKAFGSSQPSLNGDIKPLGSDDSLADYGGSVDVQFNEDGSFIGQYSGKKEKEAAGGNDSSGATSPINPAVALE

Assays:
[1] = molecular target: recombinant MeCP2 used as substrate-coat in the label-free binding assay (human) (UniProt P51608); experiment: label-free binding assay (BIND technology, peak wavelength shift); recombinant MeCP2 coated on a 384-well plate with TiO2 biosensor surface; L1-ICD and CHL1-ICD as soluble binding partners at increasing concentrations; both purified
[2] = molecular target: recombinant full-length human MeCP2 (amino acids 1-486) with GST-tag (human) (UniProt P51608); experiment: ELISA; GST-tagged MeCP2 coated (25 µL of 5 µg/mL, 384-well plate); increasing concentrations of His-tagged L1-ICD or CHL1-ICD for 1 h at room temperature; detection with L1 antibody C-2 or CHL1 antibody C-18; both purified
[3] = molecular target: recombinant full-length human MeCP2 with a Flag-tag (human) (UniProt P51608); experiment: ELISA; competition ELISA: Flag-tagged MeCP2 coated (25 µL of 10 µg/mL); 2.5 µM L1-ICD preincubated for 1 h without or with a 5-fold molar excess of L1 peptides; detection with L1 antibody C-2; both purified

binding [1]	binding [2]	binding [3]	Substance
no binding	no binding		recombinant His-tagged intracellular domain of mouse CHL1 (CHL1-ICD) (from UniProt P70232 1105-1209) (domain or fragment)
binds		binds	recombinant His-tagged intracellular domain of mouse L1 (L1-ICD) (from UniProt P11627 1147-1260) (domain or fragment)
